{"source": "the supplement of paper PMC8728848", "assay_in_all_cases": "glycan array binding signal (z-score within array); higher = stronger binding", "conditions_in_all_cases": "glycan notation: IUPAC condensed, linker removed", "key": {"[1]": {"target": "Gal(b1-3)GalNAc(b1-3)Gal(a1-4)Gal(b1-4)Glc", "how_it_was_run": "(§1)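 Glycan array data came from 3228 arrays in the Consortium for Functional Glycomics database, and only arrays with an available protein sequence were kept. Glycan names were put into IUPAC-condensed notation, and columns mapping to the same glycan were averaged. The binding signal is a within-array Z-score, averaged across arrays of one protein sequence run at different concentrations or buffers and across linkers. A negative Z-score can be read as non-binding.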"}, "[2]": {"target": "Gal(b1-3)GalNAc(b1-4)Gal(b1-4)Glc", "how_it_was_run": "as §1"}, "[3]": {"target": "Gal(b1-3)GalNAc(b1-4)[Neu5Ac(a2-3)]Gal(b1-4)Glc", "how_it_was_run": "as §1"}, "Gal(b1-3)GlcNAc": {"target": "Gal(b1-3)GlcNAc", "how_it_was_run": "as §1"}, "[4]": {"target": "Gal(b1-3)GlcNAc(a1-3)Gal(b1-4)GlcNAc", "how_it_was_run": "as §1"}, "[5]": {"target": "Gal(b1-3)GlcNAc(a1-6)Gal(b1-4)GlcNAc", "how_it_was_run": "as §1"}, "Gal(b1-3)GlcNAc(b1-2)Man": {"target": "Gal(b1-3)GlcNAc(b1-2)Man", "how_it_was_run": "as §1"}, "[6]": {"target": "Gal(b1-3)GlcNAc(b1-2)Man(a1-3)[Gal(b1-3)GlcNAc(b1-2)Man(a1-6)]Man(b1-4)GlcNAc(b1-4)GlcNAc", "how_it_was_run": "as §1"}, "[7]": {"target": "Gal(b1-3)GlcNAc(b1-2)Man(a1-3)[Gal(b1-3)GlcNAc(b1-2)Man(a1-6)]Man(b1-4)GlcNAc(b1-4)[Fuc(a1-6)]GlcNAc", "how_it_was_run": "as §1"}, "[8]": {"target": "Gal(b1-3)GlcNAc(b1-2)Man(a1-3)[GlcNAc(b1-4)][Gal(b1-3)GlcNAc(b1-2)Man(a1-6)]Man(b1-4)GlcNAc(b1-4)GlcNAc", "how_it_was_run": "as §1"}, "[9]": {"target": "Gal(b1-3)GlcNAc(b1-2)[Gal(b1-3)GlcNAc(b1-6)]Man(a1-6)[Gal(b1-3)GlcNAc(b1-2)Man(a1-3)]Man(b1-4)GlcNAc(b1-4)GlcNAc", "how_it_was_run": "as §1"}, "[10]": {"target": "Gal(b1-3)GlcNAc(b1-3)Gal(b1-3)GlcNAc", "how_it_was_run": "as §1"}, "[11]": {"target": "Gal(b1-3)GlcNAc(b1-3)Gal(b1-4)Glc", "how_it_was_run": "as §1"}, "[12]": {"target": "Gal(b1-3)GlcNAc(b1-3)Gal(b1-4)GlcNAc", "how_it_was_run": "as §1"}, "[13]": {"target": "Gal(b1-3)GlcNAc(b1-3)Gal(b1-4)GlcNAc(b1-2)Man(a1-3)[Gal(b1-3)GlcNAc(b1-3)Gal(b1-4)GlcNAc(b1-2)Man(a1-6)]Man(b1-4)GlcNAc(b1-4)GlcNAc", "how_it_was_run": "as §1"}, "[14]": {"target": "Gal(b1-3)GlcNAc(b1-3)Gal(b1-4)GlcNAc(b1-2)[Gal(b1-3)GlcNAc(b1-3)Gal(b1-4)GlcNAc(b1-6)]Man(a1-6)[Gal(b1-3)GlcNAc(b1-3)Gal(b1-4)GlcNAc(b1-2)Man(a1-3)]Man(b1-4)GlcNAc(b1-4)[Fuc(a1-6)]GlcNAc", "how_it_was_run": "as §1"}, "[15]": {"target": "Gal(b1-3)GlcNAc(b1-3)Gal(b1-4)GlcNAc(b1-3)Gal(b1-4)GlcNAc(b1-2)[Gal(b1-3)GlcNAc(b1-3)Gal(b1-4)GlcNAc(b1-3)Gal(b1-4)GlcNAc(b1-6)]Man(a1-6)[Gal(b1-3)GlcNAc(b1-3)Gal(b1-4)GlcNAc(b1-3)Gal(b1-4)GlcNAc(b1-2)Man(a1-3)]Man(b1-4)GlcNAc(b1-4)[Fuc(a1-6)]GlcNAc", "how_it_was_run": "as §1"}, "[16]": {"target": "Gal(b1-3)GlcNAc(b1-3)Gal(b1-4)GlcNAc(b1-6)[Gal(b1-3)GlcNAc(b1-3)]Gal(b1-4)Glc", "how_it_was_run": "as §1"}, "[17]": {"target": "Gal(b1-3)GlcNAc(b1-3)Gal(b1-4)[Fuc(a1-3)]GlcNAc", "how_it_was_run": "as §1"}, "[18]": {"target": "Gal(b1-3)GlcNAc(b1-3)Gal(b1-4)[Fuc(a1-3)]GlcNAc(b1-6)[Gal(b1-3)GlcNAc(b1-3)]Gal(b1-4)Glc", "how_it_was_run": "as §1"}, "[19]": {"target": "Gal(b1-3)GlcNAc(b1-3)GalNAc", "how_it_was_run": "as §1"}, "[20]": {"target": "Gal(b1-3)GlcNAc(b1-6)Gal(b1-4)GlcNAc", "how_it_was_run": "as §1"}, "[21]": {"target": "Gal(b1-3)GlcNAc(b1-6)GalNAc", "how_it_was_run": "as §1"}, "[22]": {"target": "Gal(b1-3)GlcNAc(b1-6)[Gal(b1-3)]GalNAc", "how_it_was_run": "as §1"}, "Gal(b1-3)GlcNAc6S": {"target": "Gal(b1-3)GlcNAc6S", "how_it_was_run": "as §1"}, "[23]": {"target": "Gal(b1-3)[Fuc(a1-4)]GlcNAc", "how_it_was_run": "as §1"}, "[24]": {"target": "Gal(b1-3)[Fuc(a1-4)]GlcNAc(b1-2)Man", "how_it_was_run": "as §1"}, "[25]": {"target": "Gal(b1-3)[Fuc(a1-4)]GlcNAc(b1-2)Man(a1-3)[Gal(b1-3)[Fuc(a1-4)]GlcNAc(b1-2)Man(a1-6)]Man(b1-4)GlcNAc(b1-4)[Fuc(a1-6)]GlcNAc", "how_it_was_run": "as §1"}, "[26]": {"target": "Gal(b1-3)[Fuc(a1-4)]GlcNAc(b1-3)Gal(b1-3)[Fuc(a1-4)]GlcNAc", "how_it_was_run": "as §1"}, "[27]": {"target": "Gal(b1-3)[Fuc(a1-4)]GlcNAc(b1-3)Gal(b1-4)[Fuc(a1-3)]GlcNAc", "how_it_was_run": "as §1"}, "[28]": {"target": "Gal(b1-3)[Fuc(a1-4)]GlcNAc(b1-6)GalNAc", "how_it_was_run": "as §1"}, "[29]": {"target": "Gal(b1-3)[GlcNAc(b1-6)]GalNAc", "how_it_was_run": "as §1"}, "[30]": {"target": "Gal(b1-3)[Neu5Ac(a2-6)]GalNAc", "how_it_was_run": "as §1"}, "[31]": {"target": "Gal(b1-3)[Neu5Ac(a2-6)]GlcNAc(b1-4)Gal(b1-4)Glc", "how_it_was_run": "as §1"}, "[32]": {"target": "Gal(b1-3)[Neu5Ac(b2-6)]GalNAc", "how_it_was_run": "as §1"}, "Gal(b1-4)Gal": {"target": "Gal(b1-4)Gal", "how_it_was_run": "as §1"}, "[33]": {"target": "Gal(b1-4)GalNAc(a1-3)[Fuc(a1-2)]Gal(b1-4)GlcNAc", "how_it_was_run": "as §1"}, "[34]": {"target": "Gal(b1-4)GalNAc(b1-3)[Fuc(a1-2)]Gal(b1-4)GlcNAc", "how_it_was_run": "as §1"}}, "note": "This is one part of the list.", "data": [{"binder": "EUL D1A (Oryza sativa) (protein) MFGFGHHHNQAPAAPSDPNQIFKIFCRANENYCLTVRDSAVVLAPVNPKDEHQHWFKDMRFSTKVKDGEGMPAFALVNKATGLAVKHSLGQSHPVKLVPFNPEYEDASVLWTESKDVGKGFRCIRMVNNTRLNLDAFHGDKDHGGVRDGTTVVLWEWCKGDNQSWKILPWGPEAHSSSPGAATACTIGGVPVHTVRVFSAAGEDYCLTVRNGTACLAPKNPRDDYQHWIKDMRHSNKIRDEEGYPAFALVNKVTGEAIKHSTGQGHPVKLVPYNPEYQDESVLWTESKDVGKGFRCIRMVNNIYLNFDAFHGDKDHGGIHDGTEIVLWKWCEGDNQRWKILPWILEQKLISEEDLNSAVDHHHHHH", "values": [{"measurement": "glycan array binding signal (z-score)", "setting": "[1]", "value": 0.844}, {"measurement": "glycan array binding signal (z-score)", "setting": "[2]", "value": 0.314}, {"measurement": "glycan array binding signal (z-score)", "setting": "[3]", "value": 0.083}, {"measurement": "glycan array binding signal (z-score)", "setting": "Gal(b1-3)GlcNAc", "value": -0.925}, {"measurement": "glycan array binding signal (z-score)", "setting": "[4]", "value": -0.323}, {"measurement": "glycan array binding signal (z-score)", "setting": "[5]", "value": -0.331}, {"measurement": "glycan array binding signal (z-score)", "setting": "Gal(b1-3)GlcNAc(b1-2)Man", "value": -0.463}, {"measurement": "glycan array binding signal (z-score)", "setting": "[6]", "value": 1.87}, {"measurement": "glycan array binding signal (z-score)", "setting": "[7]", "value": -0.148}, {"measurement": "glycan array binding signal (z-score)", "setting": "[8]", "value": 1.07}, {"measurement": "glycan array binding signal (z-score)", "setting": "[9]", "value": 0.033}, {"measurement": "glycan array binding signal (z-score)", "setting": "[10]", "value": 0.957}, {"measurement": "glycan array binding signal (z-score)", "setting": "[11]", "value": -0.916}, {"measurement": "glycan array binding signal (z-score)", "setting": "[12]", "value": -0.797}, {"measurement": "glycan array binding signal (z-score)", "setting": "[13]", "value": -0.811}, {"measurement": "glycan array binding signal (z-score)", "setting": "[14]", "value": 2.06}, {"measurement": "glycan array binding signal (z-score)", "setting": "[15]", "value": 1.55}, {"measurement": "glycan array binding signal (z-score)", "setting": "[16]", "value": -0.182}, {"measurement": "glycan array binding signal (z-score)", "setting": "[17]", "value": 0.426}, {"measurement": "glycan array binding signal (z-score)", "setting": "[18]", "value": 0.644}, {"measurement": "glycan array binding signal (z-score)", "setting": "[19]", "value": 0.974}, {"measurement": "glycan array binding signal (z-score)", "setting": "[20]", "value": -1.08}, {"measurement": "glycan array binding signal (z-score)", "setting": "[21]", "value": -0.595}, {"measurement": "glycan array binding signal (z-score)", "setting": "[22]", "value": -0.146}, {"measurement": "glycan array binding signal (z-score)", "setting": "Gal(b1-3)GlcNAc6S", "value": -0.943}, {"measurement": "glycan array binding signal (z-score)", "setting": "[23]", "value": -0.247}, {"measurement": "glycan array binding signal (z-score)", "setting": "[24]", "value": -0.158}, {"measurement": "glycan array binding signal (z-score)", "setting": "[25]", "value": 0.658}, {"measurement": "glycan array binding signal (z-score)", "setting": "[26]", "value": -0.837}, {"measurement": "glycan array binding signal (z-score)", "setting": "[27]", "value": -0.883}, {"measurement": "glycan array binding signal (z-score)", "setting": "[28]", "value": -0.229}, {"measurement": "glycan array binding signal (z-score)", "setting": "[29]", "value": -0.369}, {"measurement": "glycan array binding signal (z-score)", "setting": "[30]", "value": 0.492}, {"measurement": "glycan array binding signal (z-score)", "setting": "[31]", "value": -0.484}, {"measurement": "glycan array binding signal (z-score)", "setting": "[32]", "value": 0.018}, {"measurement": "glycan array binding signal (z-score)", "setting": "Gal(b1-4)Gal", "value": -0.703}, {"measurement": "glycan array binding signal (z-score)", "setting": "[33]", "value": -0.914}, {"measurement": "glycan array binding signal (z-score)", "setting": "[34]", "value": -0.23}]}]}
